The source of these data is PMC10634230.

The chains behind the UniProt entries cited, without tags or fusion partners. Residues count along the entry.
UniProt Q9NYK1, 27-839, stated change not applied: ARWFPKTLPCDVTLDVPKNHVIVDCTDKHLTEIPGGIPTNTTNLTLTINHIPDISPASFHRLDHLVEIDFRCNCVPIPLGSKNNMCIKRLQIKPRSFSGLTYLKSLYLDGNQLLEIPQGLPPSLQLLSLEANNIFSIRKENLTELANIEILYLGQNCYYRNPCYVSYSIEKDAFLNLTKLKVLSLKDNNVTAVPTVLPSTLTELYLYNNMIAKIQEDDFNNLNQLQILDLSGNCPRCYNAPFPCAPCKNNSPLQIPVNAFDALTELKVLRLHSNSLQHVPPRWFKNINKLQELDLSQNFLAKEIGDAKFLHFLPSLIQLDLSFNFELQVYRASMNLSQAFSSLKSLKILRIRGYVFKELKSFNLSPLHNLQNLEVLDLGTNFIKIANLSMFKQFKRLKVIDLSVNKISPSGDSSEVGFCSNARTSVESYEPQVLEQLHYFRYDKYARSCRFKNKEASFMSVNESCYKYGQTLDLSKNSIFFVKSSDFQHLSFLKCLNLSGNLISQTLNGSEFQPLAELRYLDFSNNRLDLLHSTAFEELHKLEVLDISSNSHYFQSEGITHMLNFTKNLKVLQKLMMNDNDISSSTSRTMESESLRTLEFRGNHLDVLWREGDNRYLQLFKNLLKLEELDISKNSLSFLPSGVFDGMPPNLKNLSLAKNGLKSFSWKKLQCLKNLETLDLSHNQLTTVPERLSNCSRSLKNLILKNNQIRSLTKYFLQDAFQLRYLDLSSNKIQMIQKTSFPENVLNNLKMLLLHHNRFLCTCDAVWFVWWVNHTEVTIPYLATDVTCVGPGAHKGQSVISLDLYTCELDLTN

The exact form of at least one protein or probe is not confirmed. A weaker result is weaker than the reference pair of the same experiment.

The data set deals with TLR7 Fc chimera (recombinant human TLR7) (Homo sapiens) (UniProt Q9NYK1). The data set can be described thus: EMSA. The settings on record: EMSA: 100 ng RNA, 1 ug TLR7 in 20 uL, 30 min, 5% polyacrylamide gel; commercial protein; protein details: Fc chimera; label: 5' FAM.

UUGAAGGACAGGUUAAGCU [RNA9.2a]: the binding result is reported as “binds more weakly”.
